These are yes or no findings as the source states them, for the method shown. Binding seen in cells or lysates may run through a third protein. Some entries that bind do so weakly or less than the wild type. Sequences can lack the tags named with a protein.

Test [1] addresses T1, lysosome-associated membrane protein-1 (LAMP-1), endogenous (human (endogenous in HEK293T)) (UniProt P11279).
T1 sequence: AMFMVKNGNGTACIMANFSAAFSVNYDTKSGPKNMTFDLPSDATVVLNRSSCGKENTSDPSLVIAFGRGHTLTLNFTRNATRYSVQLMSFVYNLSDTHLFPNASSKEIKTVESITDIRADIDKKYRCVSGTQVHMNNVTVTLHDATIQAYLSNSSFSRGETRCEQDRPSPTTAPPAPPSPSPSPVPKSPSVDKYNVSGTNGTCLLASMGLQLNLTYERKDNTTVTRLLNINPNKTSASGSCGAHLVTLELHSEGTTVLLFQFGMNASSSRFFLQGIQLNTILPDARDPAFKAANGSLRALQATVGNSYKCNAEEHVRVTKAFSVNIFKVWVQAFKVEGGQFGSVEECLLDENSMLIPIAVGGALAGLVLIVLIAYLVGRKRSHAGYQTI
Nature of the test: co-IP; 1 mg of total lysate of transfected HEK293T cells (50 mM Tris HCl pH 7.4, 1.5 mM MgCl2, 5 mM EDTA, 1% Triton X-100, 50 mM NaF, 1 mM Na2VO3) incubated with the specific antibody 6-8 h at 4°C, then Protein G Sepharose overnight at 4°C; western blot; which antibody precipitated is not stated. Background: A western blot detects proteins with antibodies after separation by electrophoresis.

For test [2], the target named is T1, lysosome-associated membrane protein-1 (LAMP-1), endogenous (human (endogenous in HEK293T)). In words: proximity ligation; Duolink In Situ-Fluorescence on fixed, methanol-permeabilised transfected HEK293T cells; GDAP1-MYC and endogenous LAMP-1; dots per cell counted.

B1: GDAP1-MYC fusion protein, wild-type (protein, UniProt Q8TB36 1-358)
chain: MAERQEEQRGSPPLRAEGKADAEVKLILYHWTHSFSSQKVRLVIAEKALKCEEHDVSLPLSEHNEPWFMRLNSTGEVPVLIHGENIICEATQIIDYLEQTFLDERTPRLMPDKESMYYPRVQHYRELLDSLPMDAYTHGCILHPELTVDSMIPAYATTRIRSQIGNTESELKKLAEENPDLQEAYIAKQKRLKSKLLDHDNVKYLKKILDELEKVLDQVETELQRRNEETPEEGQQPWLCGESFTLADVSLAVTLHRLKFLGFARRNWGNGKRPNLETYYERVLKRKTFNKVLGHVNNILISAVLPTAFRVAKKRAPKVLGTTLVVGLLAGVGYFAFMLFRKRLGSMILAFRPRPNYF
Take B1: the binding result in test [1] and in test [2] was “binds” in each case.

B2: GDAP1-MYC fusion protein, p.Thr157Pro (dominant clinical variant) (protein, UniProt Q8TB36 1-358)
chain: MAERQEEQRGSPPLRAEGKADAEVKLILYHWTHSFSSQKVRLVIAEKALKCEEHDVSLPLSEHNEPWFMRLNSTGEVPVLIHGENIICEATQIIDYLEQTFLDERTPRLMPDKESMYYPRVQHYRELLDSLPMDAYTHGCILHPELTVDSMIPAYAPTRIRSQIGNTESELKKLAEENPDLQEAYIAKQKRLKSKLLDHDNVKYLKKILDELEKVLDQVETELQRRNEETPEEGQQPWLCGESFTLADVSLAVTLHRLKFLGFARRNWGNGKRPNLETYYERVLKRKTFNKVLGHVNNILISAVLPTAFRVAKKRAPKVLGTTLVVGLLAGVGYFAFMLFRKRLGSMILAFRPRPNYF
In the case of B2, the binding result in test [1] and in test [2] was “binds” each time.

B3: GDAP1-MYC fusion protein, p.Arg161His (recessive clinical variant) (protein, UniProt Q8TB36 1-358)
chain: MAERQEEQRGSPPLRAEGKADAEVKLILYHWTHSFSSQKVRLVIAEKALKCEEHDVSLPLSEHNEPWFMRLNSTGEVPVLIHGENIICEATQIIDYLEQTFLDERTPRLMPDKESMYYPRVQHYRELLDSLPMDAYTHGCILHPELTVDSMIPAYATTRIHSQIGNTESELKKLAEENPDLQEAYIAKQKRLKSKLLDHDNVKYLKKILDELEKVLDQVETELQRRNEETPEEGQQPWLCGESFTLADVSLAVTLHRLKFLGFARRNWGNGKRPNLETYYERVLKRKTFNKVLGHVNNILISAVLPTAFRVAKKRAPKVLGTTLVVGLLAGVGYFAFMLFRKRLGSMILAFRPRPNYF
On to B3, for which the binding entry in test [1] and in test [2] was “binds” each time.

Source of the values: article PMC10110396.
